Drawing on paper PMC6707942, this text covers binding for one molecule.

These are yes or no findings as the source states them, for the method shown. Binding seen in cells or lysates may run through a third protein. A result given as binding can be weak or reduced; the word gives no strength. Tags and fused reporters may be left off the sequences shown.

The target in the test is clathrin heavy chain (human (endogenous in DU-145)). Description: proximity ligation; DU-145 cells treated with His-MDA-7/IL-24 for 30 min, fixed; Duolink PLA kit; primary antibodies (anti-MDA-7/IL-24 and anti-clathrin or anti-caveolae) overnight at 4 °C; signals seen by fluorescence microscope; only the binder purified.

B1: His-tagged recombinant MDA-7/IL-24 (ligand, UniProt Q13007 52-206)
chain: QEFHFGPCQVKGVVPQKLWEAFWAVKDTMQAQDNITSARLLQQEVLQNVSDAESCYLVHTLLEFYLKTVFKNYHNRTVEVRTLKSFSTLANNFVLIVSQLQPSQENEMFSIRDSAHRRFLLFRRAFKQLDVEAALTKALGEVDILLTWMQKFYKL
Regarding B1, the binding result is recorded as “binds”.
